From PubChem BioAssay AID206 (DTP/NCI, 2004)
The list shows only some results of the screen, not a fair sample: it gathers tests that were run many times, whatever their T/C, doses with no T/C, and many T/C values between a quarter and a half above the control. Further doses and runs are listed elsewhere. T/C gives the treated animals as a percentage of the vehicle group. Schedules are NCI's codes, taken here to give the interval after Q, in days (D) or hours (H), and the number of doses after X. Some molecules as drawn cover several salts, stereoisomers or complexes of the source; a dose is that of the sample tested. Some T/C values are followed by the survivors on the day toxicity was checked, most often the fifth; where none is given, no animal had died by that day. Some entries give survivors of the animals treated and no T/C: the source files T/C as zero there, which appears to mark a toxic dose or a test without result, not a measured value. Survivors were counted at the toxicity check, usually on the fifth day, unless a day is given; later deaths do not show. Some entries hold several experiments; the values are given in rising order.

System: nude mice, HT29 intrarenal xenograft, tumor weight T/C
Assay: NCI In Vivo Anticancer Drug Screen. Data for tumor model HT29;CX-1 Human Adenocarcinoma (MER+) (intrarenal inoculation) in NU/NU Swiss (nude) mice
Settings: T/C endpoint: mean tumor weight change, higher T/C = larger tumour
Summary of the method: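 Mice with transplanted tumors are dosed with compound while controls get vehicle only. Survival or tumor burden is then assessed per group, and the treated value is expressed relative to control.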

[1] = dose: 150.0 mg/kg/injection, schedule: Q04DX004 (sc), vehicle: Klucel (hydroxypropylcellulose) (HPC)
[2] = dose: 300.0 mg/kg/injection, schedule: Q04DX004 (sc), vehicle: Klucel (hydroxypropylcellulose) (HPC)
[3] = dose: 400.0 mg/kg/injection, schedule: Q04DX004 (sc), vehicle: saline with Tween-80, evaluated on day 15
[4] = dose: 800.0 mg/kg/injection, schedule: Q01DX010 (sc), vehicle: saline

CC1(C)OCC(CO)(Nc2nc(N3CC3)nc(N3CC3)n2)CO1
survivor count (dose: 4.0 mg/kg/injection, schedule: Q04DX004 (sc), vehicle: saline): 3 of 5 on day 15
survivor count (dose: 8.0 mg/kg/injection, schedule: Q04DX004 (sc), vehicle: saline): 0 of 6 on day 15
survivor count (dose: 16.0 mg/kg/injection, schedule: Q04DX004 (sc), vehicle: saline): 0 of 6 on day 15

Cc1cc(NS(=O)(=O)c2ccc(N=Nc3cc(N=Nc4ccc(S(=O)(=O)Nc5cc(C)nc(C)n5)cc4)c4c(NC(=O)C(Cl)Cl)cccc4c3OC(=O)C(Cl)Cl)cc2)nc(C)n1 (tested in a mixture with another compound)
T/C (dose: 300.0 mg/kg/injection, schedule: Q04DX004 (sc), vehicle: suspension in saline, evaluated on day 15): 130 % of control
T/C (dose: 600.0 mg/kg/injection, schedule: Q04DX004 (sc), vehicle: suspension in saline, evaluated on day 15): 146 % of control

CCS/C(SC)=C(/c1ccccc1)[P+](c1ccccc1)(c1ccccc1)c1ccccc1
T/C (dose: 37.5 mg/kg/injection, schedule: Q04DX004 (sc), vehicle: Klucel (hydroxypropylcellulose) (HPC), evaluated on day 15): 125 % of control [3 of 4 alive on day 15]
survivor count (dose: 75.0 mg/kg/injection, schedule: Q04DX004 (sc), vehicle: Klucel (hydroxypropylcellulose) (HPC)): 3 of 6 on day 15
survivor count [1]: 0 of 6 on day 15

Clc1ccc(C2SC=Cc3ccccc32)cc1 (configuration not stated)
T/C (dose: 1200.0 mg/kg/injection, schedule: Q04DX004 (sc), vehicle: Klucel (hydroxypropylcellulose) (HPC), evaluated on day 15): 129 % of control [5 of 6 alive on day 15]
T/C (dose: 2400.0 mg/kg/injection, schedule: Q04DX004 (sc), vehicle: Klucel (hydroxypropylcellulose) (HPC), evaluated on day 15): 148 % of control [5 of 6 alive on day 15]

CC1(O)CC23CC(O)C4(O)C(CC(O)C4(C)C)C(C)(O)C2CCC1C3O (configuration not stated)
survivor count (dose: 2.0 mg/kg/injection, schedule: Q04DX004 (sc), vehicle: Klucel (hydroxypropylcellulose) (HPC)): 0 of 6 on day 15

O=C1C=CC(=O)N1c1ccc(Cl)cc1
survivor count [2]: 2 of 5 on day 15

CCCCCCCCCCCCCC#CC(=O)O
T/C (dose: 75.0 mg/kg/injection, schedule: Q04DX004 (sc), vehicle: saline with Tween-80, evaluated on day 15): 134 % of control
T/C (dose: 150.0 mg/kg/injection, schedule: Q04DX004 (sc), vehicle: saline with Tween-80, evaluated on day 15): 125 % of control

COc1cc(NCCCCCCCNC(C)C)c2nccc(C)c2c1
survivor count (dose: 150.0 mg/kg/injection, schedule: Q04DX004 (sc), vehicle: saline): 3 of 6 on day 15

[CH3][Sn]([CH3])([Cl])[S]CCN
survivor count (dose: 150.0 mg/kg/injection, schedule: Q04DX004 (sc), vehicle: suspension in saline): 0 of 6 on day 15

COCCCNC1=C(C#N)C(=O)NC(c2cccc([N+](=O)[O-])c2)S1 (configuration not stated)
T/C [3]: 137 % of control

Nc1ncnc2c1nnn2C1OC(CO)C(O)C1O (configuration not stated)
survivor count [1]: 2 of 6 on day 15
survivor count [2]: 1 of 6 on day 15
survivor count (dose: 600.0 mg/kg/injection, schedule: Q04DX004 (sc), vehicle: Klucel (hydroxypropylcellulose) (HPC)): 0 of 6 on day 15

C=CCOCC1CO1 (configuration not stated)
survivor count (dose: 600.0 mg/kg/injection, schedule: Q04DX004 (sc), vehicle: saline): 1 of 6 on day 15

O=CC(O)C(O)C(O)C(O)C(=O)O.[NH-]C1CCCCC1[NH-].[Pt+2] (configuration not stated)
survivor count (dose: 37.5 mg/kg/injection, schedule: Q04DX004 (sc), vehicle: suspension in saline): 1 of 6 on day 15
survivor count (dose: 75.0 mg/kg/injection, schedule: Q04DX004 (sc), vehicle: suspension in saline): 0 of 6 on day 15

O=C1c2c(O)ccc(O)c2C(=O)c2c(NCCNCCO)ccc(NCCNCCO)c21
T/C (dose: 1.0 mg/kg/injection, schedule: Q01DX010 (sc), vehicle: acid diluted with saline, evaluated on day 11): 128 % of control
survivor count (dose: 4.0 mg/kg/injection, schedule: Q01DX010 (sc), vehicle: acid diluted with saline): 0 of 3 on day 11 and 1 of 3 on day 11
survivor count (dose: 20.0 mg/kg/injection, schedule: Q04DX004 (sc), vehicle: water): 0 of 6 on day 15

Cc1cc(SCC(=O)c2ccc(Br)cc2)cc(C)[o+]1
survivor count (dose: 400.0 mg/kg/injection, schedule: Q01DX010 (sc), vehicle: saline): 1 of 3 on day 11
survivor count [4]: 1 of 3 on day 11

C=C1C(=O)C2=CC1CCC(=O)C1(C)CCC(OC(C)=O)C(C)(C)C1CC2O (configuration not stated)
T/C (dose: 30.0 mg/kg/injection, schedule: Q04DX004 (sc), vehicle: Klucel (hydroxypropylcellulose) (HPC), evaluated on day 15): 139 % of control
survivor count (dose: 240.0 mg/kg/injection, schedule: Q04DX004 (sc), vehicle: Klucel (hydroxypropylcellulose) (HPC)): 0 of 6 on day 15

COC1OC(CO)C(O)C(NC(=O)N(C)N=O)C1O (configuration not stated)
survivor count (dose: 1800.0 mg/kg/injection, schedule: Q04DX004 (sc), vehicle: suspension in saline): 0 of 5 on day 15

CC(=O)Nc1ccc(O)c(O)c1
T/C (dose: 1200.0 mg/kg/injection, schedule: Q04DX004 (sc), vehicle: saline with Tween-80, evaluated on day 15): 149 % of control

C/C=C(\C)c1cc(=O)c2c(C)cc3c(c2o1)C(=O)c1c(O)c(C2CC(C)(N(C)C)C(OC(C)=O)C(C)O2)cc(C2CC(N(C)C)C(O)C(C)O2)c1C3=O (configuration not stated)
survivor count (dose: 40.0 mg/kg/injection, schedule: Q04DX004 (sc), vehicle: saline): 0 of 6 on day 15
survivor count (dose: 80.0 mg/kg/injection, schedule: Q04DX004 (sc), vehicle: saline): 0 of 6 on day 15

CCCN1COC(OCC)C(C)(C)C1 (configuration not stated)
survivor count (dose: 1200.0 mg/kg/injection, schedule: Q04DX004 (sc), vehicle: saline with Tween-80): 1 of 6 on day 15

N/C=N/O
T/C (dose: 200.0 mg/kg/injection, schedule: Q01DX010 (sc), vehicle: saline, evaluated on day 20): 138 % of control
survivor count [4]: 0 of 3 on day 20

CC[n+]1c(-c2ccccc2)c2cc(N)ccc2c2ccc(N)cc21
survivor count (dose: 120.0 mg/kg/injection, schedule: Q04DX004 (sc), vehicle: saline): 0 of 6 on day 15

COc1cc(C(=O)N/N=C/c2cccc([N+](=O)[O-])c2)cc(OC)c1OC
T/C (dose: 300.0 mg/kg/injection, schedule: Q04DX004 (sc), vehicle: saline with Tween-80, evaluated on day 15): 144 % of control

CC1(C)N=C(N)N=C(N)N1c1ccc(CCCCc2ccc(S(=O)(=O)F)cc2Cl)c(Cl)c1
survivor count (dose: 50.0 mg/kg/injection, schedule: Q01DX010 (sc), vehicle: saline): 0 of 3 on day 11
survivor count (dose: 100.0 mg/kg/injection, schedule: Q01DX010 (sc), vehicle: saline): 0 of 3 on day 11

Oc1cc2c3c(c1)c1cc4c(cc1c[n+]3CC2)OCO4
survivor count (dose: 800.0 mg/kg/injection, schedule: Q04DX004 (sc), vehicle: water): 2 of 6 on day 15

COC(=O)Nc1cccc(-c2nc3ccc(NC(=O)OC)cc3c(=O)n2-c2ccccc2)c1
survivor count (dose: 100.0 mg/kg/injection, schedule: Q01DX010 (sc), vehicle: Klucel (hydroxypropylcellulose) (HPC)): 1 of 2 on day 11
survivor count (dose: 200.0 mg/kg/injection, schedule: Q01DX010 (sc), vehicle: Klucel (hydroxypropylcellulose) (HPC)): 1 of 3 on day 11
survivor count (dose: 400.0 mg/kg/injection, schedule: Q01DX010 (sc), vehicle: Klucel (hydroxypropylcellulose) (HPC)): 1 of 3 on day 11

N#CC(=C1C=CC(=NO)C=C1)c1ccc(Cl)cc1
T/C (dose: 200.0 mg/kg/injection, schedule: Q04DX004 (sc), vehicle: saline with Tween-80, evaluated on day 15): 125 % of control

Cc1c(N)nc(C(CC(N)=O)NCC(N)C(N)=O)nc1C(=O)NC(C(=O)NC(C)C(O)C(C)C(=O)NC(C(=O)NCCc1nc(-c2nc(C(=O)NCCCNCCCc3ccccn3)cs2)cs1)C(C)O)C(OC1OC(CO)C(O)C(O)C1OC1OC(CO)C(O)C(OC(N)=O)C1O)c1cnc[nH]1 (configuration not stated)
survivor count (dose: 72.0 mg/kg/injection, schedule: Q04DX004 (sc), vehicle: water): 2 of 6 on day 15

O=Cc1ccc(O)c(O)c1
survivor count (dose: 2400.0 mg/kg/injection, schedule: Q04DX004 (sc), vehicle: saline with Tween-80): 3 of 6 on day 15

Cc1ccc(S(=O)(=O)NC(=O)OC23COCN2COC3)cc1
T/C [3]: 128 % of control

[Cl][Pt+2][Cl].[NH-]C1CCC1.[NH2-]
survivor count (dose: 50.0 mg/kg/injection, schedule: Q04DX004 (sc), vehicle: suspension in saline): 1 of 6 on day 15

Cc1cc(Nc2ccc3c(c2)OCO3)c2cc3c(cc2n1)OCO3
survivor count (dose: 1200.0 mg/kg/injection, schedule: Q04DX004 (sc), vehicle: Klucel (hydroxypropylcellulose) (HPC)): 2 of 6 on day 15
survivor count (dose: 2400.0 mg/kg/injection, schedule: Q04DX004 (sc), vehicle: Klucel (hydroxypropylcellulose) (HPC)): 3 of 6 on day 15
